Assay results taken from PubChem BioAssay AID504467 (National Center for Advancing Translational Sciences (NCATS), 2011).
The campaign covered roughly 330,000 compounds. About 7,700 (2.3%) were called active. Inconclusive means that the source gave no clear call. Such entries were picked first, then a sample of the others. Calls come from the whole dose curve; as a rule, active = well fitted inhibition curve with a large enough effect; inconclusive = small, poorly fitted or top-dose-only effect, or effect the other way; inactive = flat fitted curve, though single readings scatter. Potencies of inconclusive entries are doubtful fits and often do not repeat.
Potency is the fitted concentration of half-maximal effect.

Assay: qHTS screen for small molecules that inhibit ELG1-dependent DNA repair in human embryonic kidney (HEK293T) cells expressing luciferase-tagged ELG1; note: nearly all actives have a fitted effect of over 55% in size
Settings: HEK293T ELG1-luciferase reporter, luminescence, 16 h, DNA damage induced by 5-fluorouridine; series mostly up to 46.1 µM
Outline: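 In this reporter screen, reduction of luminescence relative to DMSO vehicle indicated activity. Compounds and 5-fluorouridine were added together to 2,000 cells per well, incubated for 16 hr at 37 °C, then developed with ONE-Glo.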
For `Cc1ccccc1S(=O)(=O)Cc1ccc(C(=O)N2CCN(c3cccc(C)c3C)CC2)o1`, the Potency was active: 7.31 µM. For `CC(=O)Nc1ccc(NC(=O)CC2Nc3cccc4cccc(c34)NC2=O)cc1` (configuration not stated), the Potency was “inactive”. For `CCN1CCN(C(=S)c2ccc(-c3ccccc3)cc2)CC1`, the Potency was inconclusive: 18.3 µM [inhibitor, single point]. For `COCCCNC(=O)/C=C/c1ccc(Cl)cc1Cl`, the Potency was inconclusive: 23.1 µM [activator, partial curve]. In the case of `CCOC(=O)c1c(-c2ccccc2)csc1NC(=O)CCN1CCOCC1`, the Potency is reported as active: 23.1 µM. With `C=CCc1cc(C=O)cc(OCC)c1O` the Potency was “inactive”. In the case of `CSCc1ccc(C(=O)NCC(c2cccs2)N2CCOCC2)cc1` (configuration not stated), the Potency is reported as “inactive”. In the case of `Cc1cc2ccccn2c1C(=O)Nc1cccc(Cl)c1`, the Potency is reported as inconclusive: 29.1 µM [activator, single point]. In the case of `CC1=NN(C(N)=S)C(=O)C1N=Nc1ccc(F)cc1` (configuration not stated), the Potency is reported as inconclusive: 20.6 µM [activator, partial curve]. For `CN1CCN(c2ccc(NC(=O)c3cccc(OCc4ccccc4)c3)cc2)CC1`, the Potency was inconclusive: 18.4 µM [activator, single point]. For `CCCN(CCC)S(=O)(=O)c1ccc(C(=O)Nc2c(C)n(C)n(-c3ccccc3)c2=O)cc1`, the Potency was inconclusive: 16.4 µM [inhibitor, single point]. With `Clc1ccc(C2=Nn3c(nnc3-c3n[nH]c4c3CCC4)SC2)cc1Cl` the Potency was inconclusive: 29.1 µM [inhibitor, single point]. For `Cc1cc(S(=O)(=O)N2CCOCC2)ccc1OCC(=O)Nc1cccc(F)c1`, the Potency was “inactive”. With `CC(=O)Nc1ccc(S(=O)(=O)Nc2cccc(-c3cn4cccnc4n3)c2)cc1` the Potency was “inactive”. In the case of `Cc1nn(Cc2ccccc2)c(Cl)c1C(=O)NCCc1ccccc1`, the Potency is reported as inconclusive: 7.31 µM [activator, partial curve]. For `COC(=O)CNc1nc(Cl)nc(NC2CCCCC2)n1`, the Potency was “inactive”. In the case of `CC(C)(C)OC(=O)NC(Cc1ccccc1)C(=O)N1CCCC1C(=O)O` (configuration not stated), the Potency is reported as “inactive”. In the case of `Cc1cccnc1NC(=O)C(c1ccccc1)c1ccccc1`, the Potency is reported as inconclusive: 6.51 µM [inhibitor, full curve]. For `CCN(CC)c1nc(C)nc2c1cnn2CCc1ccccc1`, the Potency was inconclusive: 13 µM [activator, partial curve]. With `Nc1nc(N(Cc2ccccc2)Cc2ccccc2)nc(C(F)(F)F)n1` the Potency was “inactive”. In the case of `CSc1nsc(SCC(=O)NC2CCCCC2)n1`, the Potency is reported as inconclusive: 25.9 µM [activator, single point]. With `O=C(COC(=O)/C=C/c1cccc(Cl)c1)Nc1cccc(S(=O)(=O)NC2=NCCC2)c1` the Potency was inconclusive: 18.3 µM [inhibitor, partial curve, poor fit].
